Several values for one entry are separate records, joined by “and”; a condition that tells them apart may be missing. Identical values can stand only once. Counter-ions that a name gives are not always drawn. ± gives the standard deviation of the averaged measurements. This is one part of the list. Many values rest on one well or one pass, so single values are uncertain.
Test system: RAW 264.7
Assay: cell viability (MTT) relative to vehicle control; higher = more viable cells
Conditions: stimulus: HMGB1 5 ug/ml, 18 h
[1] = compound concentration: 1 ug/ml

SMILES | cell viability (compound concentration: 3 uM) | cell viability [1]
OCC(S)CS (configuration not stated) | 102% | 
CC[C@@H]1Cc2cc(O)ccc2C2=C1c1ccc(O)cc1C[C@H]2CC [(R,R)-cis-Diethyl tetrahydro-2,8-chrysenediol] | 84.3% | 
Nc1ncnc2c1ncn2[C@H]1CC[C@@H](CO)O1 [2',3'-Dideoxyadenosine] |  | 118%
COc1ccc2cc3[n+](cc2c1OC)CCc1cc2c(cc1-3)OCO2 | 94.7 ± 17% | 
CCCCCCCCCCCCCCCC[N+](C)(C)C | 79.2% | 
NC(=O)C1(N2CCCCC2)CCN(CCCC(=O)c2ccc(F)cc2)CC1 | 107% | 
CNC1(C)C2CCC(C2)C1(C)C (configuration not stated) [Mecamylamine hydrochloride] | 104 ± 12% | 
CNC1(C)C2CCC(C2)C1(C)C (configuration not stated) | 113% | 
CNC1(C)C2CCC(C2)C1(C)C (configuration not stated) [Mecamylamine] | 101% | 
COc1cc2ccc(=O)oc2cc1OC1OC(COC2OC(C)C(OC(C)=O)C(OC(C)=O)C2OC(C)=O)C(OC(C)=O)C(OC(C)=O)C1OC(C)=O (configuration not stated) [Haploperoside C Acetate] |  | 105%
Nc1nccs1 | 112% | 
NC(=O)c1cccnc1 [Nicotinamide] | 102% | 
NC(=O)c1cccnc1 | 108% and 96% | 
NCCC(=O)N[C@@H](Cc1cnc[nH]1)C(=O)O [L-Carnosine] |  | 99.3%
CCCc1nc(C(C)(C)O)c(C(=O)OCc2oc(=O)oc2C)n1Cc1ccc(-c2ccccc2-c2nnn[nH]2)cc1 | 101 ± 3% | 
Cn1c(=O)c2c(ncn2CC(O)CO)n(C)c1=O (configuration not stated) | 114% | 
Cn1c(=O)c2c(ncn2CC(O)CO)n(C)c1=O (configuration not stated) [Diprophylline] | 102% | 
C=C(NC(=O)C(=C)NC(=O)c1csc(C2=N[C@@H]3c4csc(n4)[C@H]4NC(=O)c5csc(n5)[C@H]([C@](C)(O)[C@@H](C)O)NC(=O)[C@H]5CSC(=N5)/C(=C/C)NC(=O)[C@H]([C@@H](C)O)NC(=O)c5csc(n5)[C@]3(CC2)NC(=O)[C@H](C)NC(=O)C(=C)NC(=O)[C@H](C)NC(=O)[C@H]([C@@H](C)CC)N[C@@H]2C=Cc3c([C@H](C)O)cc(nc3[C@H]2O)C(=O)O[C@@H]4C)n1)C(N)=O [Thiostrepton] | 54.3% | 
CCC(C)(CN(C)C)OC(=O)c1ccccc1 (configuration not stated) [Amyleine hydrochloride] | 97.3% | 
C[C@@H]1CC2C3C[C@H](F)C4=CC(=O)C=C[C@]4(C)[C@@]3(F)[C@@H](O)C[C@]2(C)[C@@]1(O)C(=O)COC(=O)C(C)(C)C (some centres not stated) | 117% | 
CC(=C(CCO)SSCC1CCCO1)N(C=O)Cc1cnc(C)nc1N (stereo in doubt) [Fursultiamine Hydrochloride] | 96.8% | 

SMILES | cell viability (compound concentration: 3 uM) | cell viability [1]
COC1C=COC2(C)Oc3c(C)c(O)c4c(O)c(c(C=O)c(O)c4c3C2=O)NC(=O)C(C)=CC=CC(C)C(O)C(C)C(O)C(C)C(OC(C)=O)C1C (configuration not stated) [3-formyl Rifamycin SV] |  | 101%
CC(C)(Oc1ccc(C2CC2(Cl)Cl)cc1)C(=O)O (configuration not stated) [Ciprofibrate] | 97.7 ± 10% | 
C=CCN1CCCC1CNC(=O)c1cc2nn[nH]c2cc1OC (configuration not stated) [Alizapride HCl] | 117% | 
CCCc1cc(=O)oc2cc(O)cc(O)c12 [5,7-Dihydroxy-4-propylcoumarin] |  | 105%
CC1=C(C(=O)O)N2C(=O)[C@@H](NC(=O)[C@H](N)c3ccc(O)cc3)[C@H]2SC1 [Cefadroxil] | 105% | 
CC1=C(C(=O)O)N2C(=O)[C@@H](NC(=O)[C@H](N)c3ccc(O)cc3)[C@H]2SC1 | 110% | 
O=C(O)CCC/C=C\C[C@@H]1[C@@H](/C=C/[C@H](O)C2Cc3ccccc3C2)[C@@H](F)C[C@@H]1O | 93.8% | 
N[C@@H](CCC(=O)N[C@@H](CSN=O)C(=O)NCC(=O)O)C(=O)O [S-Nitrosoglutathione] | 110% | 
Cc1cn([C@H]2C[C@H](O)[C@@H](CO)O2)c(=O)[nH]c1=O [Thymidine] |  | 95.5%
CC(CCc1ccc(O)cc1)NCCc1ccc(O)c(O)c1 (configuration not stated) | 107% | 
CC(CCc1ccc(O)cc1)NCCc1ccc(O)c(O)c1 (configuration not stated) [Dobutamine hydrochloride] | 99.6 ± 11% | 
CC(CCc1ccc(O)cc1)NCCc1ccc(O)c(O)c1 (configuration not stated) [Dobutamine] | 96.1% | 
CC1CCN(CCCC(=O)c2ccc(F)cc2)CC1 [Metylperon] | 105% | 
Nc1ccc(S(N)(=O)=O)cc1 | 97.1% | 
Nc1ccc(S(N)(=O)=O)cc1 [Sulfanilamide] | 117% | 
CCN1CCC[C@H]1CNC(=O)c1cc(S(N)(=O)=O)ccc1OC | 92.4% | 
CCN1CCC[C@H]1CNC(=O)c1cc(S(N)(=O)=O)ccc1OC [Sulpiride S (-)] | 116% | 
O=c1cc(O)cc(/C=C/c2ccc(O)c(O)c2)o1 [Hispidin] | 108% | 
CCOc1nc2cccc(C(=O)OC(C)OC(=O)OC3CCCCC3)c2n1Cc1ccc(-c2ccccc2-c2nn[nH]n2)cc1 (configuration not stated) | 103% | 
O=c1[nH]c(=O)n([C@H]2C[C@H](O)[C@@H](CO)O2)cc1/C=C/Br [(E)-5-(2-Bromovinyl)-2'-deoxyuridine] | 103% | 86.1%

Source: the supplement of paper PMC3682954
